Test [1] addresses T1, Ovr110 on transiently transfected 293F cells (human) (UniProt Q7Z7D3).
T1 sequence: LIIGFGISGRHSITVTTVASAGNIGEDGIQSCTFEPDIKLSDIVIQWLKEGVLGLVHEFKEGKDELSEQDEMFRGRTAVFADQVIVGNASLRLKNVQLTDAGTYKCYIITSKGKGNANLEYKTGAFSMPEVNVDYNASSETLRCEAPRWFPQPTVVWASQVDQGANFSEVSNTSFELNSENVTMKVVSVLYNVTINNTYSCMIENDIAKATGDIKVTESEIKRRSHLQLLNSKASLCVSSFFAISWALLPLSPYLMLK
The experiment in a line: FACS, Ovr110-293F cells.

Test [2] has as its target T1, Ovr110 on transiently transfected 293F cells (human). The experiment in a line: FACS (legend of FIG. 7).

No constants are given. Whether binding was seen depends on the method and setting. Some binding calls cover weakened binding; strength is not graded here.

B1: BTLA5NT_mFc (Fc fusion)
chain: KESCDVQLYIKRQSEHSILAGDPFELECPVKYCANRPHVTWCKLNGTTCVKLEDRQTSWKEEKNISFFILHFEPVLPNDNGSYRCSANFQSNLIESHSTTLYVTDVKSASERPSKDEMASRPASENLYFQGPRGPTIKPCPPCKCPAPNLLGGPSVFIFPPKIKDVLMISLSPIVTCVVVDVSEDPDVQISWFVNNVEVHTAQTQTHREDYNSTLRVVSALPIQHQDWMSGKEFKCKVNNKDLPAPIERTISKPKGVRAPQVYVLPPPEEEMTKKQVTLTCMVTDFMPEDIYVEWTNNGKTELNYKNTEPVLDSDGSYFMYSKLRVEKNWVERNSYSCSVVHEGLHNHHTTKSFSRTPGK
B1: the binding result in test [1] and in test [2] was “binds” throughout.

(Values after patent publication US20070178101A1.)
